A: 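Whole-cell assay for inhibitors of Mycobacterium tuberculosis growth, labelled Cornell in the record; the read-out is not stated. The concentration is filed as 10 mM, unlikely as a test dose, so the dose is not known. The record gives no direction; compounds strong in two other growth screens of this library score well above the rest, so higher reads as stronger inhibition. Of about 53,000 compounds tested this way, about 900 (1.7%) reached 50% or more in at least one test.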
B: 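Assay on Mycobacterium tuberculosis, filed only as a heat shock assay from Cornell; the read-out is not stated. The concentration is filed as 10 mM, unlikely as a test dose, so the dose is not known. Direction is inferred from retests: higher values go with stronger inhibition. About 69,000 compounds were tested under these conditions; 1.4% (about 930) showed 50% or more at least once.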

The filed quantity is “Percent Effect” (%). The record does not define 0% and 100%; most values in the screen are far below 50% and negative numbers occur (in some assays of this library far below -100). This is an unselected part of the compounds tested. A dash means the value is not listed here; it may have been measured.

compound	A	B
CC(C)(C)n1ncc2c(=O)n(CC(=O)NCCc3ccccc3)cnc21	5.769	9.74
COc1ccc(C(=O)Nc2cc(CC(C)C)nn2C)cc1	-17.61	12.7
COc1cc(C(=O)NS(=O)(=O)c2cncc(Br)c2)ccc1C	-	24
CCOc1cccc(CCNC(=O)Cc2ccccc2O)n1	-14.76	-0.9373
CC(C)(C)c1nc(CC(=O)Nc2cnccc2O)cs1	-32.06	-30.98
Cc1cccc(CCC(=O)Nc2ccnn2C2CCS(=O)(=O)C2)c1 (stereo not drawn)	-	-6.941
[H][C@]12CN(C(=O)NCc3ccccc3)CCN1C(=O)N(CCOC)C2	-	-10.92
Cc1ccc(N2CCCC(NCc3ccc(Cl)o3)C2)nn1 (stereo not drawn)	-	-8.295
Cn1cc(NC(=O)Cn2cc(-c3ccccc3)ncc2=O)cn1	-24.77	-10.27
CC(C)(C)c1nc(CN2CCCC2CCc2ccccc2)no1 (stereo not drawn)	1.4	-21.12
CC(C)c1cc(COCCC(=O)O)no1	0.4083	-6.216
O=C(C1CCC1)N1CCC2(CCN(Cc3cccc(F)c3)CC2)CC1.O=C(O)C(F)(F)F	-43.82	-32.59
N#CC1(C(=O)N2CCOC(c3ccc(F)cc3)C2)CCCCC1 (stereo not drawn)	26.35	24.17
Cn1cc(-c2ccc(C3CCCCN3Cc3cccnc3)cn2)cn1 (stereo not drawn)	36.92	34.89
Cc1cccc(N2CCC(NCc3cnc(C4CCC4)s3)CC2)n1	-17.24	-30.31
O=C(O)C(F)(F)F.[H][C@@]12OCCN(Cc3ccc(F)cc3)[C@@]1([H])CC[C@H]2OCC1CCCC1	46.8	6.931
[H][C@@]12CCCCCN(C)[C@@]1([H])[C@H](c1ccccc1)CN2C(=O)c1cccnc1	-13.11	-3.295
Cl.NCCc1cc(N2CCOCC2)nc(NC2CC2)n1	11.37	-1.001
COc1c(CNC(C)C(=O)NC2CCCC2)c(C)nn1C (stereo not drawn)	-	-33.06
COc1ccc(CN(C)CCS(=O)(=O)c2ccc(Cl)cc2)cc1OC	-	-27.54
Cc1cc(NCc2csc(-c3ccco3)n2)ccc1C(N)=O	-11.86	0.5505
O=C(c1cnc(-c2ccco2)s1)N1CCOc2ncccc21	-41.39	-2.438
CCOC(=O)CN1CCC(NC(=O)OC(C)(C)C)CC1	-24.25	-43.96
COCCC1CCN(CC(C)n2cnc3ccccc32)CC1 (stereo not drawn)	8.349	-9.326
O=C(c1cnc(C2CC2)s1)N1CCCC(n2cccn2)C1 (stereo not drawn)	11.4	19.34
O=C(O)C(F)(F)F.[H][C@@]12COC[C@H](C(=O)N3CCOCC3)[C@]1([H])CN(C1CCCCC1)C2	7.821	11.82
COCCC(=O)N1CCCC1c1csc(Nc2ccccn2)n1 (stereo not drawn)	-	12.73
O=C(CN1CCc2cncnc2C1)NC(c1ccccc1)C1CC1 (stereo not drawn)	-	16.14
Cc1cnc(N2CCC3(CCCCN3C)C2)nc1.O=C(O)C(F)(F)F (stereo not drawn)	-	-11.33
CC1=Nc2c(c(=O)[nH]n2C2CCOCC2)C(c2cccc(O)c2)S1 (stereo not drawn)	36.64	9.081
COc1ccc(CN2CCC3(CC2)CCN(CC(C)C)C3=O)cc1.O=C(O)C(F)(F)F	14.21	-16.8
CS(=O)(=O)N1CCC(O)(Cn2c(C3CC3)nc3ccccc3c2=O)CC1	1.922	-23.66
c1nc(NCC2(N3CCOCC3)CCSC2)c2sccc2n1 (stereo not drawn)	-19.7	-0.572
Cc1cc(C(=O)NCC2CCCC2)c(C)n1-c1cccnc1	28.28	7.709
CCCSCC(=O)N1CCCC(CO)(CCC)C1 (stereo not drawn)	5.668	3.43
CN(CCOc1ccccc1Cl)S(=O)(=O)N1CCOCC1	4.774	-14.67
CNC(=O)c1ccc(C(=O)N2CCCC2c2cnn(C)c2)cn1 (stereo not drawn)	20.24	-3.436
CS(=O)(=O)N1CCC(NC(=O)COc2cccc(Cl)c2)CC1	-	9.041
COc1ccc(S(=O)(=O)NCC(O)c2sccc2C)cc1Cl (stereo not drawn)	-36.91	12.45
[H][C@@]12C[C@H](C)O[C@]1([H])CCN(C(=O)C1=CCCCC1)C2	-	0.2044
N#Cc1c(F)cccc1N1CCC(C(=O)Nc2nccs2)CC1	-26.26	13.02
COCCn1ccc2c(C(=O)O)cccc21	17.17	2.102
O=C(O)[C@@H]1CN(C2CCCCC2)C[C@H]1C1CC1	8.566	14.62

4 of the entries, repeated:

Result for CC(C)c1cc(COCCC(=O)O)no1 was A: 0.4083%; B: -6.216%.
Result for N#Cc1c(F)cccc1N1CCC(C(=O)Nc2nccs2)CC1 was A: -26.26%; B: 13.02%.
Result for Cn1cc(NC(=O)Cn2cc(-c3ccccc3)ncc2=O)cn1 was A: -24.77%; B: -10.27%.
Result for O=C(c1cnc(C2CC2)s1)N1CCCC(n2cccn2)C1 (stereo not drawn) was A: 11.4%; B: 19.34%.

Source: ChEMBL document CHEMBL3988442, “University of Dundee, Small-Polar-MMV Screening Library” (2021).